Data taken from patent publication US20100247430A1 (published 2010).
These are yes or no findings as the source states them, for the method shown. In cells and extracts the contact can be indirect. Some entries that bind do so weakly or less than the wild type.

The chains behind the UniProt entries cited, without tags or fusion partners.
UniProt Q80U72: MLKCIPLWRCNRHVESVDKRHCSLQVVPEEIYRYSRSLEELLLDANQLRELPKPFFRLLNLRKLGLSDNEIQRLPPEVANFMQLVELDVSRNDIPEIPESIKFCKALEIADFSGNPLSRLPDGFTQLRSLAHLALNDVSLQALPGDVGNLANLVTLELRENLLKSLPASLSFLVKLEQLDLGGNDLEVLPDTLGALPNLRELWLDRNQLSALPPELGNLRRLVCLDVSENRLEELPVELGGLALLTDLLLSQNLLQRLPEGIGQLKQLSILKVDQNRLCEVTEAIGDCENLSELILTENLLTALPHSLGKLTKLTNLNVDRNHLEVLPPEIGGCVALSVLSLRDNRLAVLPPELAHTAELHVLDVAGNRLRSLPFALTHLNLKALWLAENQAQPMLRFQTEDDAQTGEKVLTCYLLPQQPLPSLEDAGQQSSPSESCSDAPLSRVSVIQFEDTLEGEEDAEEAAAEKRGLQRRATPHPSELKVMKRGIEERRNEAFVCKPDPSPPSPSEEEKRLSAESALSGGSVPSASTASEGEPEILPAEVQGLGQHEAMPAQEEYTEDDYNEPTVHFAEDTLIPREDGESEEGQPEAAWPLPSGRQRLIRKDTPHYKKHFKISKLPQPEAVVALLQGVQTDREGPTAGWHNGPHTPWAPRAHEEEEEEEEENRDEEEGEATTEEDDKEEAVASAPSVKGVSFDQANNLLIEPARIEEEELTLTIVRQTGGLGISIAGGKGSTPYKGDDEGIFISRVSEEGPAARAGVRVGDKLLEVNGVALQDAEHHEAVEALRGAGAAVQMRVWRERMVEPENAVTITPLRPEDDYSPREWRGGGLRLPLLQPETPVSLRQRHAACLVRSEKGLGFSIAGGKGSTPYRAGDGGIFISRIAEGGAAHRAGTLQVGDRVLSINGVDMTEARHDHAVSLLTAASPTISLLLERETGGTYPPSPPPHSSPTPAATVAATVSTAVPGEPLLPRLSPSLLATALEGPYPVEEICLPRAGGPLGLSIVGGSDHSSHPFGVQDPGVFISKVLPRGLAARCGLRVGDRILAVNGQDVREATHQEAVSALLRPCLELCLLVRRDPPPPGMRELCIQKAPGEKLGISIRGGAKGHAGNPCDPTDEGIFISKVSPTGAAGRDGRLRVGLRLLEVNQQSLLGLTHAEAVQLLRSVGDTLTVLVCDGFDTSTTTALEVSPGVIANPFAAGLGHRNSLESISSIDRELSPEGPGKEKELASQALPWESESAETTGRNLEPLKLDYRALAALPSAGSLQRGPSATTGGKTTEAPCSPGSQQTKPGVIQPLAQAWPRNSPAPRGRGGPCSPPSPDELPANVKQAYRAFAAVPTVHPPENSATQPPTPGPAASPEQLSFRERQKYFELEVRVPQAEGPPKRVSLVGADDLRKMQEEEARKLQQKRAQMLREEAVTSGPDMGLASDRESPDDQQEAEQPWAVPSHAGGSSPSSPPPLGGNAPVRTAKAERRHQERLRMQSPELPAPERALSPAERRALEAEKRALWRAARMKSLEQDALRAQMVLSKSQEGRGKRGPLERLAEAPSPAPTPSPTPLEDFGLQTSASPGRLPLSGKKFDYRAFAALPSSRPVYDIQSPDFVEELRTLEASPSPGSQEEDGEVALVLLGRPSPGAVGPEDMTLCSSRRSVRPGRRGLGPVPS

Tests used:
[1] = biological target: Scrib (endogenous, mouse T cells) (mouse) (UniProt Q80U72); assay: co-immunoprecipitation from activated mouse CD4+ T cell extracts, anti-Scrib IP, anti-Crtam immunoblot
[2] = biological target: Scrib (endogenous, mouse T cells) (mouse) (UniProt Q80U72); assay: summary of the co-immunoprecipitation and GST-PDZ pull-down (discussion)
[3] = biological target: Scrib (endogenous, mouse T cells) (mouse) (UniProt Q80U72); assay: co-immunoprecipitation from activated mouse CD8+ T cell extracts, anti-Scrib IP (H-300), immunoblot with 17B2

- binding [1]: binds
- binding [2]: binds
- binding [3]: binds
B1: mouse Crtam (endogenous, on activated mouse T cells) (receptor)
chain: AFLKMETVTVEEGQTLTLTCVTSQTKNVSLQWLAPSGFTIFLNQHPALKSSKYQLLHHSATQLSISVSNVTLREEGVYTCLHYGSSVKTKQVRVTVLVTPFQPTVEALVLRRQNGEKSVVLKCSTERSKPPPQITWLLGEGLEIYGELHHEFEADGKICNTSSTLIARAYGKNSTVHCIIQHEGLHGRKLVAPFQFEDLVADQETTSDAPEQSSLSSQALQQPTSTVSMMENSSIPETDKEEKEHATQDPGLSTASAQHTGLARRKSGILLLTLVSFLIFILFIIVQLFIMKLRKAHVVWKKESEISEQALESYRSRSNNEETSSQENSSQAPQSKRCMNYITQLYSGAKTKKSAQHWKLGGKHSRVPESIV
notes: Endogenous protein of mouse CD4+ or CD8+ T cells; In the co-immunoprecipitations it came from whole cell extracts; In flow cytometry and the Cadm1(ECD)-Fc assay it was on the cell surface; also called class-I MHC restricted T-cell associated molecule
